{"source": "patent US8058240B2", "about": "(University of Florida Research Foundation, Inc., priority 2006, dated 2011)", "experiment": "Fmoc solid-phase peptide synthesis; Fmoc-Rink Amide Resin; BOP/HOBt/DIEA; DIC", "details": "whole synthesis, 214 nm, scale 0.26 mmol", "data": [{"substance": "Tyr-c[Cys-His-DPhe-Arg-Trp-Asn-Ala-Phe-Cys]-Tyr", "values": [{"measurement": "final HPLC purity", "result": ">98", "unit": "%"}]}]}
